The values that follow come from paper PMC10287905.

Sequences of proteins named here, by UniProt entry; tags and fusion partners are left off.
UniProt P27694, whole entry: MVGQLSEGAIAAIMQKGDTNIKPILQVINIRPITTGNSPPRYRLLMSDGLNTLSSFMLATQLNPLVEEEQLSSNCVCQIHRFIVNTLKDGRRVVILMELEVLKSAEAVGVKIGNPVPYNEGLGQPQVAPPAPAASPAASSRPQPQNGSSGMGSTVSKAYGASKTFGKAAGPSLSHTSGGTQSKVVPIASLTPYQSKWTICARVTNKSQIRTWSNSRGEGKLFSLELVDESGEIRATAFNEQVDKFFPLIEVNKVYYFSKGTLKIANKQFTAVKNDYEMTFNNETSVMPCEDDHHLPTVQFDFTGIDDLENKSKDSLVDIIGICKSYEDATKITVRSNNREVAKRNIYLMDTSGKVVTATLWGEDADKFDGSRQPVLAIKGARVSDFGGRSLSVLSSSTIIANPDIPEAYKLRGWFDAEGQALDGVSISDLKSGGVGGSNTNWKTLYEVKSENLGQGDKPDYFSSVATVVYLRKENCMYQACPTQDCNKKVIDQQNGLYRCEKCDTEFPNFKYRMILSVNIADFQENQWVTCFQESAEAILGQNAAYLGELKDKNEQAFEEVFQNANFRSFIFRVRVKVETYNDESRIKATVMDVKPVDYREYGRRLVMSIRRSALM
UniProt P27694, whole entry K259Q/K458Q/K489Q: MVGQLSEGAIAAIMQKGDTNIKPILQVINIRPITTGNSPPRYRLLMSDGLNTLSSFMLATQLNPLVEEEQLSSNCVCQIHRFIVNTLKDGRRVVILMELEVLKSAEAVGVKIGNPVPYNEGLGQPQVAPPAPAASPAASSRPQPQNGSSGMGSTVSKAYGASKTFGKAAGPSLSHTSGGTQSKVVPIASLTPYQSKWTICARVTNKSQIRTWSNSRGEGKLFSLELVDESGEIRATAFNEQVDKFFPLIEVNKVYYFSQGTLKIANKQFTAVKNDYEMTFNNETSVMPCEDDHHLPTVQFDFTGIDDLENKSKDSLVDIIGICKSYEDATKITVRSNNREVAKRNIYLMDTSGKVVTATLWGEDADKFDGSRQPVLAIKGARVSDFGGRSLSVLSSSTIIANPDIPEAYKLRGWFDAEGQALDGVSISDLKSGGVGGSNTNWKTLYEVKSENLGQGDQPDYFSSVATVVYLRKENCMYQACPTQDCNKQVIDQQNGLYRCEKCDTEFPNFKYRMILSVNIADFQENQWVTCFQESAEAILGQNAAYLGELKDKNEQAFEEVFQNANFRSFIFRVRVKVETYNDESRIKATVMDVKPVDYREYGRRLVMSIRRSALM
UniProt P27694, whole entry K259R/K458R/K489R: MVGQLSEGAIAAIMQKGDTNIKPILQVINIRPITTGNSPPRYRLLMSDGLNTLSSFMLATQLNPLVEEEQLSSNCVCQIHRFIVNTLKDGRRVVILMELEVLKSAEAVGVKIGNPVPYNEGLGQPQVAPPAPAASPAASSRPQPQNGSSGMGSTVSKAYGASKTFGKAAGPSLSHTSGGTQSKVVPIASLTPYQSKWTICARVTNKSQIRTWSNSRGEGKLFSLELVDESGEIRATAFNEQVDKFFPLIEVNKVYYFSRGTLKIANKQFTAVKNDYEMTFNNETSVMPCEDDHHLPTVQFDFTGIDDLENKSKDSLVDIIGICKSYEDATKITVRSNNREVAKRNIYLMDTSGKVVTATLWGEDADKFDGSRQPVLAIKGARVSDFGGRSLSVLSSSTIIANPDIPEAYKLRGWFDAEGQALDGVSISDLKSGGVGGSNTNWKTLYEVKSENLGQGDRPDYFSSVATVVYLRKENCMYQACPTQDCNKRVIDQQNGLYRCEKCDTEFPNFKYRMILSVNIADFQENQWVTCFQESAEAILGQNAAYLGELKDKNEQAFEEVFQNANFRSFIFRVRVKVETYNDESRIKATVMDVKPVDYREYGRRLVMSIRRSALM
UniProt P22336, whole entry K259Q/K427Q/K463Q/K494Q: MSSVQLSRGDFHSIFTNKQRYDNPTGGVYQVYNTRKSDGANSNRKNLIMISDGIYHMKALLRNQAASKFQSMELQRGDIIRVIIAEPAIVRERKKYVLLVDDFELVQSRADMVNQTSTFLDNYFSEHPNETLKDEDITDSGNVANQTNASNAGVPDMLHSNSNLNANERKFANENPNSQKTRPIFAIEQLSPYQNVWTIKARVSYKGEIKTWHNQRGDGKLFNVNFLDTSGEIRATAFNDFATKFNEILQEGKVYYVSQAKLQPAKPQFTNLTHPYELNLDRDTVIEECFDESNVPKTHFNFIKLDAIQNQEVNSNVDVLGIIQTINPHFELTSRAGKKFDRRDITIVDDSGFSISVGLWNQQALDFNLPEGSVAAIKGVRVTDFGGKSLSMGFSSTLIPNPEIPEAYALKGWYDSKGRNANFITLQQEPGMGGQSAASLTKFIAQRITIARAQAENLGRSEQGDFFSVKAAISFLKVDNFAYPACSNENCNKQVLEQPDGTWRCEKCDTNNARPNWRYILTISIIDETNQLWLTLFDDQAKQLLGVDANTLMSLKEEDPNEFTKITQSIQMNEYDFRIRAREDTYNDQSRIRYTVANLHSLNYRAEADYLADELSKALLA
UniProt P22336, whole entry K259R/K427R/K463R/K494R: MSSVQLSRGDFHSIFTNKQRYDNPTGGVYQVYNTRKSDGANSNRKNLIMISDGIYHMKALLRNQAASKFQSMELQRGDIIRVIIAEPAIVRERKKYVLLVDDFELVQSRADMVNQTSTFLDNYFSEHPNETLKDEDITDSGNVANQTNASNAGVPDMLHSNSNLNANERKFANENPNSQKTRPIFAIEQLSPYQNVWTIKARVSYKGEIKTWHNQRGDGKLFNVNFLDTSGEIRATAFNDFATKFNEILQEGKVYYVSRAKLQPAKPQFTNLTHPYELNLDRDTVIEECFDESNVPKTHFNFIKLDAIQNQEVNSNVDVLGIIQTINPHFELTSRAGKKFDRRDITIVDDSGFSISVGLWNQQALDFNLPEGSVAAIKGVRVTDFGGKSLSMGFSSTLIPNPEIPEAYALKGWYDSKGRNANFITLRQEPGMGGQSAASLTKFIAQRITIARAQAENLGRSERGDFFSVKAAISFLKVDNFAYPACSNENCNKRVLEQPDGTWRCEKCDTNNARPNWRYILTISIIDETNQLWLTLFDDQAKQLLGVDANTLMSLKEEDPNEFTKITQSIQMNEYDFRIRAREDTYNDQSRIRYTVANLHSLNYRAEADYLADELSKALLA

The exact form of at least one protein or probe is not confirmed. Where cells or extracts were used, other partners may take part. For part of these data: Weaker means in comparison with the reference protein, sequence or condition of that experiment.

Assay in all cases: pull-down
One data set deals with RPA1 WT (human) (UniProt P27694). Conditions: human lysate pull-down: 20 mM Tris-HCl pH 8.0, 100 mM NaCl, 1 mM EDTA, 0.5% NP-40, room temp, 30 min; protein in a lysate after overexpression; protein details: FLAG; label: 5'-biotin; single-stranded DNA.
Data set [1] has as its target RPA1-3KQ K259Q,K458Q,K489Q (human) (UniProt P27694). To be noted: lower and higher concentrations; human lysate pull-down: 20 mM Tris-HCl pH 8.0, 100 mM NaCl, 1 mM EDTA, 0.5% NP-40, room temp, 30 min; protein in a lysate after overexpression; protein details: FLAG; label: 5'-biotin; single-stranded DNA.
For data set [2], the target named is Rfa1-4KQ (RPA in lysate) K259Q,K427Q,K463Q,K494Q (UniProt P22336). To be noted: more severe than 4KR; human lysate pull-down: 20 mM Tris-HCl pH 8.0, 100 mM NaCl, 1 mM EDTA, 0.5% NP-40, room temp, 30 min; protein in an extract; label: 5'-biotin; single-stranded DNA.
The target in data set [3] is Rfa1 WT (endogenous RPA in lysate) (UniProt P22336). Conditions: human lysate pull-down: 20 mM Tris-HCl pH 8.0, 100 mM NaCl, 1 mM EDTA, 0.5% NP-40, room temp, 30 min; protein in an extract; label: 5'-biotin; single-stranded DNA.
Data set [4] addresses Rfa1-4KR (RPA in lysate) K259R,K427R,K463R,K494R (UniProt P22336). Conditions: human lysate pull-down: 20 mM Tris-HCl pH 8.0, 100 mM NaCl, 1 mM EDTA, 0.5% NP-40, room temp, 30 min; protein in an extract; label: 5'-biotin; single-stranded DNA.
Data set [5] has as its target RPA1-3KR K259R,K458R,K489R (human) (UniProt P27694). Conditions: higher concentration only, no defect at lower; human lysate pull-down: 20 mM Tris-HCl pH 8.0, 100 mM NaCl, 1 mM EDTA, 0.5% NP-40, room temp, 30 min; protein in a lysate after overexpression; protein details: FLAG; label: 5'-biotin; single-stranded DNA.

Take “CGATAAGCTTGATATCGAATTCCTGCAGCC [biotin-ssDNA 30 nt]”: the binding result with RPA1 WT (human) was “binds”; in data set [1] it was “binds more weakly”; in data set [2], “binds more weakly”; in data set [3] it was “binds”; in data set [4] it was “binds more weakly”; in data set [5], “binds more weakly”.
